# Primary screen of a compound library

A: 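Whole-cell assay for inhibitors of Mycobacterium tuberculosis growth, labelled Cornell in the record; the read-out is not stated. The concentration is filed as 10 mM, unlikely as a test dose, so the dose is not known. The record gives no direction; compounds strong in two other growth screens of this library score well above the rest, so higher reads as stronger inhibition. About 53,000 compounds were tested under these conditions; 1.7% (about 900) showed 50% or more at least once.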
B: 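Assay on Mycobacterium tuberculosis, filed only as a heat shock assay from Cornell; the read-out is not stated. The concentration is filed as 10 mM, unlikely as a test dose, so the dose is not known. Direction is inferred from retests: higher values go with stronger inhibition. Of about 69,000 compounds tested this way, about 930 (1.4%) reached 50% or more in at least one test.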

Results are given as percent effect. How 0% and 100% were set is not recorded. Most values in the screen are low, and negative values occur. The compounds are a random part of those screened. A dash means the value is not listed here; it may have been measured.

For CCN1CCC2(CC1)CC(NC(=O)N(C)C)c1cc(C)ccc12.O=C(O)C(F)(F)F (stereo unspecified) the result was A: 21.42%; B: 17.02%. O=C(C1CC1)N1CCN(C(=O)C2CC(=O)N(c3ccccc3Br)C2)CC1 (stereo unspecified) read A: -4.562%; B: -22.64%. For [H][C@@]12CCN(S(=O)(=O)c3cccc(F)c3)C[C@]1(C(=O)NC)CCO2 the result was A: 4.411%; B: -15.35%. CC1NC(=O)COC12CCN(C(=O)Cc1ccsc1)CC2 (stereo unspecified) gave A: 27.05%; B: -25.86%. CN1CCN(Cc2cnc3n2CCN(C(=O)c2ccnnc2)C3)CC1 gave A: 22.51%; B: -6.728%. O=C(O)C(F)(F)F.[H][C@@]12C[C@@H](C)O[C@]1([H])CN(Cc1c(C)noc1C)C2 read A: -8.762%; B: 37.02%. COc1ccc(C[C@H]2CNCC[C@@H]2OCC2CC2)cc1 gave A: 25.68%; B: -10.82%. Result for COC(=O)c1sccc1S(=O)(=O)N1CCC(Oc2cccnn2)CC1 was A: 10.5%; B: -4.166%.

With Cn1cc(CN2CCn3cc(CNC(=O)c4cccn4C)nc3C2)cn1.O=C(O)C(F)(F)F the screen gave B: 13.02%. For c1cc(-c2noc(-c3cc(C4CC4)[nH]n3)n2)cc(N2CCCCC2)n1 the result was A: 22.01%; B: 4.306%. Result for O=C(O)C(F)(F)F.[H][C@@]12CN(Cc3cccs3)CCO[C@]1([H])CN(S(=O)(=O)C1CC1)C2 was A: -13.98%; B: -12.21%. For Cc1ccsc1C(=O)N1CCc2ncnc(NC(C)C)c2CC1 the result was A: 21.95%; B: -31.91%. CN(Cc1nncn1C)C(=O)c1cc(COc2ccccc2)[nH]n1 read B: -120.4%. Cc1nn(-c2ccccc2)nc1C(=O)N1CCCC1c1cnn(C)c1 (stereo unspecified) read A: 11.17%; B: 16.62%. COc1ccc(C2CCCCCN2S(C)(=O)=O)cc1 (stereo unspecified) gave A: -10.43%; B: -12.37%. With O=C(O)C(F)(F)F.[H][C@@]12CCN(c3ncccn3)C[C@@]1([H])[C@H](C(=O)NCc1ccco1)CCO2 the screen gave A: -3.236%; B: -26.21%.

Result for CCc1nc(CN(C(C)=O)C2CCN(Cc3csc(C)n3)C2)no1 (stereo unspecified) was B: -9.141%. O=C(c1cccc(Cl)c1Cl)N1CCN(CC(O)Cn2cccn2)CC1 (stereo unspecified) read A: 23.87%; B: -25.56%. For CN(c1ccncn1)C1CC2(CCN(C(=O)c3cccn3C)C2)C1 (stereo unspecified) the result was B: -24.06%. O=C(Cc1ccc(F)cc1)N1CCCCC1c1ccn2ccnc2n1 (stereo unspecified) read A: 10.88%; B: -0.7505%. CSc1nccn1-c1cccc(C(=O)NCCCN2CCOCC2)c1 gave A: -32.2%; B: -53.52%. CS(=O)(=O)C1=C(O)C(=O)N(c2ccccc2)C1c1ccccc1 (stereo unspecified) read A: 19.72%; B: 18.82%. Result for CN1CCN(C(=O)c2ncn3c2CNS(=O)(=O)c2ccccc2-3)CC1 was A: 1.824%; B: -13.33%. With [H][C@@]12CN(C(=O)CC(F)(F)F)C[C@@]1([H])N(CC(C)C)C(=O)CO2 the screen gave A: 15.71%; B: -0.5271%.

For N#Cc1nccnc1NC1CCN(c2ccccc2Br)C1 (stereo unspecified) the result was A: -15.31%; B: -20.22%. For CC(=O)Nc1nc(SCc2ccc3c(c2)OCO3)ns1 the result was A: 6.348%; B: 3.016%. Result for CC(=O)Nc1c(C)noc1/C=C\c1ccc(C)c(S(=O)(=O)NC2CC2)c1 was B: 14.26%. CC(C)CNC(=O)CNc1c(NCc2ccccn2)c(=O)c1=O gave A: -12.77%; B: -20.25%. For Cc1ccnc(C(NC(=O)c2ccc(O)nc2C)C2CC2)n1 (stereo unspecified) the result was A: -62.02%; B: -1.864%.

Some entries from above, unchanged:

structure,A,B
Cc1nn(-c2ccccc2)nc1C(=O)N1CCCC1c1cnn(C)c1 (stereo unspecified),11.17%,16.62%
CCc1nc(CN(C(C)=O)C2CCN(Cc3csc(C)n3)C2)no1 (stereo unspecified),-,-9.141%

Measurements from “University of Dundee, Small-Polar-MMV Screening Library” (2021), ChEMBL document CHEMBL3988442.